Two substances from article PMC7905166 can be followed below.

The target of experiment [1] is SH3-domain kinase binding protein 1 (SH3KBP1) (human (endogenous in human GBM cell lines)) (UniProt Q96B97). The experiment can be described thus: co-IP; endogenous proteins; cells lysed in RIPA buffer with protease inhibitors, lysate precleared with protein A/G beads, primary antibody (anti-SH3KBP1 or anti-EGFR) overnight at 4°C, protein A/G beads 2 h, washed four times with ice cold PBS, immunoblot. On the technique in general: A western blot detects proteins with antibodies after separation by electrophoresis.

For experiment [2], the target named is epidermal growth factor receptor (EGFR) (human (endogenous in human GBM cell lines)) (UniProt P00533). The experiment is described as above.

These are yes or no findings as the source states them, for the method shown. Binding seen in cells or lysates may run through a third protein. Some binding calls cover weakened binding; strength is not graded here.

As to “epidermal growth factor receptor (EGFR) (from UniProt P00533 25-1210)”, the binding entry in experiment [1] is reported as “binds”.
As for “SH3-domain kinase binding protein 1 (SH3KBP1) (from UniProt Q96B97 1-665)”, the binding result in experiment [2] is on record as “binds”.
